The other results are listed elsewhere or left out.
Assays:
Assay in all cases: glycan array binding signal (z-score within array); higher = stronger binding
Conditions in all cases: glycan notation: IUPAC condensed, linker removed
[1] = biological target: Gal(a1-3)[Gal(a1-4)]Gal(b1-4)GlcNAc
Procedure, shortened: (§1)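 Negative Z-scores can be read as non-binding. The Z-score is calculated within each array and then averaged across arrays of one protein sequence at different concentrations or buffers and across linkers. Arrays, 3228 in all, were curated from the Consortium for Functional Glycomics database and kept only where the protein sequence was available.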

[2] = biological target: Gal(a1-4)Gal(b1-3)GlcNAc(b1-2)Man(a1-3)[Gal(a1-4)Gal(b1-3)GlcNAc(b1-2)Man(a1-6)]Man(b1-4)GlcNAc(b1-4)GlcNAc
Procedure, shortened: as §1

Gal(a1-4)Gal(b1-4)Glc = biological target: Gal(a1-4)Gal(b1-4)Glc
Procedure, shortened: as §1

Gal(a1-4)Gal(b1-4)GlcNAc = biological target: Gal(a1-4)Gal(b1-4)GlcNAc
Procedure, shortened: as §1

[3] = biological target: Gal(a1-4)Gal(b1-4)GlcNAc(b1-2)Man(a1-3)[Gal(a1-4)Gal(b1-4)GlcNAc(b1-2)Man(a1-6)]Man(b1-4)GlcNAc(b1-4)GlcNAc
Procedure, shortened: as §1

[4] = biological target: Gal(a1-4)Gal(b1-4)GlcNAc(b1-3)Gal(b1-4)Glc
Procedure, shortened: as §1

Gal(a1-4)GlcNAc = biological target: Gal(a1-4)GlcNAc
Procedure, shortened: as §1

Gal(a1-6)Glc = biological target: Gal(a1-6)Glc
Procedure, shortened: as §1

Gal(b1-2)Gal = biological target: Gal(b1-2)Gal
Procedure, shortened: as §1

Gal(b1-3)Gal = biological target: Gal(b1-3)Gal
Procedure, shortened: as §1

Gal(b1-3)Gal(b1-4)GlcNAc = biological target: Gal(b1-3)Gal(b1-4)GlcNAc
Procedure, shortened: as §1

Gal(b1-3)GalNAc = biological target: Gal(b1-3)GalNAc
Procedure, shortened: as §1

[5] = biological target: Gal(b1-3)GalNAc(a1-3)[Fuc(a1-2)]Gal(b1-4)Glc
Procedure, shortened: as §1

[6] = biological target: Gal(b1-3)GalNAc(a1-3)[Fuc(a1-2)]Gal(b1-4)GlcNAc
Procedure, shortened: as §1

Gal(b1-3)GalNAc(b1-3)Gal = biological target: Gal(b1-3)GalNAc(b1-3)Gal
Procedure, shortened: as §1

[7] = biological target: Gal(b1-3)GalNAc(b1-3)Gal(a1-4)Gal(b1-4)Glc
Procedure, shortened: as §1

[8] = biological target: Gal(b1-3)GalNAc(b1-4)Gal(b1-4)Glc
Procedure, shortened: as §1

[9] = biological target: Gal(b1-3)GalNAc(b1-4)[Neu5Ac(a2-3)]Gal(b1-4)Glc
Procedure, shortened: as §1

Gal(b1-3)GlcNAc = biological target: Gal(b1-3)GlcNAc
Procedure, shortened: as §1

[10] = biological target: Gal(b1-3)GlcNAc(a1-3)Gal(b1-4)GlcNAc
Procedure, shortened: as §1

[11] = biological target: Gal(b1-3)GlcNAc(a1-6)Gal(b1-4)GlcNAc
Procedure, shortened: as §1

Gal(b1-3)GlcNAc(b1-2)Man = biological target: Gal(b1-3)GlcNAc(b1-2)Man
Procedure, shortened: as §1

[12] = biological target: Gal(b1-3)GlcNAc(b1-2)Man(a1-3)[Gal(b1-3)GlcNAc(b1-2)Man(a1-6)]Man(b1-4)GlcNAc(b1-4)GlcNAc
Procedure, shortened: as §1

[13] = biological target: Gal(b1-3)GlcNAc(b1-2)Man(a1-3)[Gal(b1-3)GlcNAc(b1-2)Man(a1-6)]Man(b1-4)GlcNAc(b1-4)[Fuc(a1-6)]GlcNAc
Procedure, shortened: as §1

[14] = biological target: Gal(b1-3)GlcNAc(b1-2)Man(a1-3)[GlcNAc(b1-4)][Gal(b1-3)GlcNAc(b1-2)Man(a1-6)]Man(b1-4)GlcNAc(b1-4)GlcNAc
Procedure, shortened: as §1

[15] = biological target: Gal(b1-3)GlcNAc(b1-2)[Gal(b1-3)GlcNAc(b1-6)]Man(a1-6)[Gal(b1-3)GlcNAc(b1-2)Man(a1-3)]Man(b1-4)GlcNAc(b1-4)GlcNAc
Procedure, shortened: as §1

[16] = biological target: Gal(b1-3)GlcNAc(b1-3)Gal(b1-3)GlcNAc
Procedure, shortened: as §1

[17] = biological target: Gal(b1-3)GlcNAc(b1-3)Gal(b1-4)Glc
Procedure, shortened: as §1

[18] = biological target: Gal(b1-3)GlcNAc(b1-3)Gal(b1-4)GlcNAc
Procedure, shortened: as §1

[19] = biological target: Gal(b1-3)GlcNAc(b1-3)Gal(b1-4)GlcNAc(b1-2)Man(a1-3)[Gal(b1-3)GlcNAc(b1-3)Gal(b1-4)GlcNAc(b1-2)Man(a1-6)]Man(b1-4)GlcNAc(b1-4)GlcNAc
Procedure, shortened: as §1

[20] = biological target: Gal(b1-3)GlcNAc(b1-3)Gal(b1-4)GlcNAc(b1-2)[Gal(b1-3)GlcNAc(b1-3)Gal(b1-4)GlcNAc(b1-6)]Man(a1-6)[Gal(b1-3)GlcNAc(b1-3)Gal(b1-4)GlcNAc(b1-2)Man(a1-3)]Man(b1-4)GlcNAc(b1-4)[Fuc(a1-6)]GlcNAc
Procedure, shortened: as §1

[21] = biological target: Gal(b1-3)GlcNAc(b1-3)Gal(b1-4)GlcNAc(b1-3)Gal(b1-4)GlcNAc(b1-2)[Gal(b1-3)GlcNAc(b1-3)Gal(b1-4)GlcNAc(b1-3)Gal(b1-4)GlcNAc(b1-6)]Man(a1-6)[Gal(b1-3)GlcNAc(b1-3)Gal(b1-4)GlcNAc(b1-3)Gal(b1-4)GlcNAc(b1-2)Man(a1-3)]Man(b1-4)GlcNAc(b1-4)[Fuc(a1-6)]GlcNAc
Procedure, shortened: as §1

[22] = biological target: Gal(b1-3)GlcNAc(b1-3)Gal(b1-4)GlcNAc(b1-6)[Gal(b1-3)GlcNAc(b1-3)]Gal(b1-4)Glc
Procedure, shortened: as §1

[23] = biological target: Gal(b1-3)GlcNAc(b1-3)Gal(b1-4)[Fuc(a1-3)]GlcNAc
Procedure, shortened: as §1

[24] = biological target: Gal(b1-3)GlcNAc(b1-3)Gal(b1-4)[Fuc(a1-3)]GlcNAc(b1-6)[Gal(b1-3)GlcNAc(b1-3)]Gal(b1-4)Glc
Procedure, shortened: as §1

[25] = biological target: Gal(b1-3)GlcNAc(b1-3)GalNAc
Procedure, shortened: as §1

[26] = biological target: Gal(b1-3)GlcNAc(b1-6)Gal(b1-4)GlcNAc
Procedure, shortened: as §1

[27] = biological target: Gal(b1-3)GlcNAc(b1-6)GalNAc
Procedure, shortened: as §1

B1: SynCAM (Mus musculus) (protein)
chain: MASAVLPSGSQCAAAAAVAAAAAPPGLRLRLLLLLLSAAALIPTGDGQNLFTKDVTVIEGEVATISCQVNKSDDSVIQLLNPNRQTIYFRDFRPLKDSRFQLLNFSSSELKVSLTNVSISDEGRYFCQLYTDPPQESYTTITVLVPPRNLMIDIQKDTAVEGEEIEVNCTAMASKPATTIRWFKGNKELKGKSEVEEWSDMYTVTSQLMLKVHKEDDGVPVICQVEHPAVTGNLQTQRYLEVQYKPQVHIQMTYPLQGLTREGDAFELTCEAIGKPQPVMVTWVRVDDEMPQHAVLSGPNLFINNLNKTDNGTYRCEASNIVGKAHSDYMLYVYDPPTTIPPP
- glycan array binding signal (z-score) [1]: 2.35
- glycan array binding signal (z-score) [2]: -0.748
- glycan array binding signal (z-score) (Gal(a1-4)Gal(b1-4)Glc): -0.6
- glycan array binding signal (z-score) (Gal(a1-4)Gal(b1-4)GlcNAc): 0.522
- glycan array binding signal (z-score) [3]: 1.04
- glycan array binding signal (z-score) [4]: -0.973
- glycan array binding signal (z-score) (Gal(a1-4)GlcNAc): -0.793
- glycan array binding signal (z-score) (Gal(a1-6)Glc): -0.988
- glycan array binding signal (z-score) (Gal(b1-2)Gal): 0.521
- glycan array binding signal (z-score) (Gal(b1-3)Gal): -0.772
- glycan array binding signal (z-score) (Gal(b1-3)Gal(b1-4)GlcNAc): -0.768
- glycan array binding signal (z-score) (Gal(b1-3)GalNAc): -0.166
- glycan array binding signal (z-score) [5]: -0.088
- glycan array binding signal (z-score) [6]: 1.09
- glycan array binding signal (z-score) (Gal(b1-3)GalNAc(b1-3)Gal): 0.652
- glycan array binding signal (z-score) [7]: -0.615
- glycan array binding signal (z-score) [8]: 0.216
- glycan array binding signal (z-score) [9]: -0.643
- glycan array binding signal (z-score) (Gal(b1-3)GlcNAc): 0.224
- glycan array binding signal (z-score) [10]: -0.387
- glycan array binding signal (z-score) [11]: 0.338
- glycan array binding signal (z-score) (Gal(b1-3)GlcNAc(b1-2)Man): 0.251
- glycan array binding signal (z-score) [12]: -0.222
- glycan array binding signal (z-score) [13]: -0.265
- glycan array binding signal (z-score) [14]: -0.502
- glycan array binding signal (z-score) [15]: -0.302
- glycan array binding signal (z-score) [16]: -0.609
- glycan array binding signal (z-score) [17]: 0.308
- glycan array binding signal (z-score) [18]: -0.523
- glycan array binding signal (z-score) [19]: -0.019
- glycan array binding signal (z-score) [20]: 2.36
- glycan array binding signal (z-score) [21]: 2.43
- glycan array binding signal (z-score) [22]: -0.891
- glycan array binding signal (z-score) [23]: -1.13
- glycan array binding signal (z-score) [24]: -0.721
- glycan array binding signal (z-score) [25]: 0.053
- glycan array binding signal (z-score) [26]: -0.679
- glycan array binding signal (z-score) [27]: -0.585
